# Test results: PubChem BioAssay AID2685 (National Center for Advancing Translational Sciences (NCATS), 2010)
# This is one part of the list. Further columns of the screen follow, without active or inactive calls. Most of these compounds were active or inconclusive in the main read-out, so they are no random draw. Potencies come from curve fits of mixed quality, noted in brackets.
# Test: qHTS Assay for Lipid Storage Modulators in Drosophila S3 Cells;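 for cell number change: cells counted by Cell Tracker Red CMTPX staining in the red channel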
# Details: BODIPY lipid droplet fluorescence, 18-24 h; for cell number change: measured here: cell count max response, cells fed with added oleic acid
# Summary of the method: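 Drosophila S3 cells got compounds at several concentrations plus oleic acid (400 uM solution). Laser-scanning cytometry with 488 nm excitation read lipid droplets at 500-530 nm and cells at 575-640 nm. Percent activity was relative to 20 uM Triacsin C.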
# [1] = measured here: cell number channel AC50, cells fed with added oleic acid
# [2] = measured here: lipid fluorescence (Fed channel) AC50, cells fed with added oleic acid
Structure (SMILES),cell number change,AC50 [1],AC50 [2]
CCOC(=O)Cc1c(C)nc2c(-c3ccc(OC)cc3)c(C)nn2c1C,22.4%,–,–
Cn1ccnc1SCC(=O)Nc1ccc2nc(SCC(=O)NC3CC3)sc2c1,42.1%,"2.59 µM [rising, full curve]","2.31 µM [rising, partial curve]"
CCOC(=O)C1=C(O)/C(=C/c2cc(OC)c(O)c(OC)c2)SC1=Nc1ccc(OC)cc1,-29.6%,–,"4.61 µM [falling, single point]"
CCCCNC(=O)COC(=O)C1CCN(S(=O)(=O)c2ccc3c(c2)OCCO3)CC1,-48.6%,"29.1 µM [falling, single point]","32.6 µM [falling, partial curve, poor fit]"
O=C(Nc1ccc2[nH]ccc2c1)c1cccs1,13.9%,–,"2.31 µM [rising, full curve, poor fit]"
O=C(COc1ccc2ccccc2c1)NNC(=O)Cc1ccccc1,25.7%,–,"32.6 µM [rising, single point]"
Cc1cccn2c(=O)c3cc(C(=O)NCc4ccco4)c(=N)n(C4CCCC4)c3nc12,25.6%,–,"0.103 µM [falling, partial curve, poor fit]"
O=C(Nc1ccc(F)cc1)NC1CCN(Cc2c(F)cccc2Cl)CC1,1.26%,–,–
CCCC(=N)C1=C(O)CC(CC(C)SCC)CC1=O (configuration not stated),3.08%,–,"20.6 µM [rising, single point]"
CC(=O)c1cccc(NC(=O)N2CCCC2C(=O)Nc2cccc(C)c2C)c1 (configuration not stated),9.52%,–,"29.1 µM [rising, single point]"
CCCNC(=O)C(Cc1cccc(OC)c1)NC(=O)c1ccc(C#N)cc1 (configuration not stated),-10.9%,"0.13 µM [falling, full curve, poor fit]","0.116 µM [falling, full curve, poor fit]"
O=c1oc(Cl)c(Cl)c2ccccc12,-13.1%,"5.8 µM [falling, single point]",–
CC(C)(C)C(=O)NCc1ccc(C(=O)CSc2nnc(-c3ccncc3)n2C2CC2)s1,10.8%,–,–
O=C(Oc1c(CN2CCOCC2)cc(Cl)c2cccnc12)c1ccccc1Cl,5.05%,"1.3 µM [rising, full curve]","2.31 µM [rising, partial curve]"
[O-]/C(=C(\C(=S)NCCN1CCOCC1)[n+]1ccccc1)c1ccc(Cl)s1,-7.95%,–,–
CC(C)(C)OC(=O)NCCCCCNC(=O)c1[nH]cnc1C(=O)Nc1ccon1,27.2%,–,"0.103 µM [falling, single point]"
CCc1ccc(CCC(=O)Nc2ccccc2C(=O)O)o1,-54.4%,"29.1 µM [falling, single point]",–
COc1cc2cc3c(N)c(C(=O)NCc4ccco4)sc3nc2cc1OC,-14.2%,–,"0.58 µM [rising, full curve, poor fit]"
COc1cccc(/C=N/Nc2cc(N3CCOCC3)ncn2)c1O,-49.5%,"10.3 µM [falling, partial curve]","3.66 µM [falling, full curve]"
CCC(C(=O)NCC1CCCO1)N(Cc1ccccc1)C(=O)CNS(=O)(=O)c1ccccc1 (configuration not stated),12.1%,–,"0.164 µM [rising, full curve]"
CC(C)c1ccc(N=Cc2c(O)c3ccccc3oc2=O)cc1,-10.8%,–,–

Structure (SMILES),cell number change,AC50 [1],AC50 [2]
CCCCNC(=O)OCCNC(=O)Oc1cccc(C)c1,-23.4%,–,"0.206 µM [falling, full curve, poor fit]"
O=C(Cn1nc(-c2ccccc2)ccc1=O)Nc1ccc(N2CCN(C(=O)c3cccs3)CC2)cc1,7.39%,–,–
O=c1oc2ccccc2c(Nc2ccc3ncccc3c2)c1[N+](=O)[O-],9.08%,–,"6.51 µM [rising, partial curve, poor fit]"
COc1ccc(CCC(=O)Nc2cccc(S(=O)(=O)N3CCOCC3)c2)cc1OC,–,"6.51 µM [rising, single point]",–
CCN(C(=O)C(C)Sc1ccc(S(=O)(=O)N2CCN(C)CC2)cn1)c1ccccc1 (configuration not stated),8.86%,–,"3.66 µM [rising, full curve, poor fit]"
COC(C(=O)N/N=C(\C)c1ccc(C(C)(C)C)cc1)c1ccccc1 (configuration not stated),-14%,–,"5.8 µM [falling, partial curve]"
O=C(c1ccccc1)N1N=C(c2ccccc2O)CC1c1ccccc1 (configuration not stated),15%,–,"6.51 µM [rising, full curve, poor fit]"
O=C(CN1CCN(Cc2ccc3c(c2)OCO3)CC1)Nc1ccc(N2CCOCC2)cc1,12.6%,–,"0.13 µM [falling, full curve, poor fit]"
O=C(Nc1cccc(F)c1)c1sc(Cl)nc1-c1ccccc1,28.8%,–,"14.6 µM [rising, single point]"
CC1CC(C)CN(C(=O)C(C)N2CCN(S(=O)(=O)c3cccs3)CC2)C1 (configuration not stated),10.7%,–,"0.00461 µM [rising, full curve, poor fit]"
O=C(Nc1ccccc1)NC1(C(=O)N2CCN(C(=O)c3ccco3)CC2)CCCCC1,-1.94%,–,"29.1 µM [rising, single point]"
CCC(=O)N1CCc2cc(S(=O)(=O)N3CCN(c4ccccc4Cl)CC3)ccc21,7.08%,–,–
CC(C)(C)c1ccc(OCCNC(=S)Nc2ccccc2)cc1,-1.54%,–,–
Cc1ccc(NC(=S)NC(=O)c2ccccc2)cc1NC(=S)NC(=O)c1ccccc1,18.6%,–,"0.259 µM [rising, full curve]"
Cc1ccc2[nH]c(=O)c(CN(CCCO)S(=O)(=O)c3cccc4nsnc34)cc2c1,-8.75%,–,–
Cc1cc(/C=C(\C#N)C(=O)NC2CCCCCC2)c(C)[nH]1,–,–,"0.92 µM [rising, partial curve]"
CC(=O)Nc1ccc(Nc2nc(C)c([N+](=O)[O-])c(N(C)c3ccccc3)n2)cc1,9.39%,–,"5.17 µM [rising, full curve, poor fit]"
N[C@H]1C(O)O[C@H](CO)[C@@H](O)[C@@H]1O (some centres not stated),-4.62%,–,"2.31 µM [falling, single point]"
COc1ccc(CCNC(=O)Cc2ccc(NC3=NC4CS(=O)(=O)CC4S3)cc2)c(OC)c1 (configuration not stated),-1.15%,–,–
Cc1cc([N+](=O)[O-])cc(/C=N\NC(=O)C2COc3ccccc3O2)c1O (configuration not stated),13%,–,–
CCCCCNC1=CC(=O)CC(c2ccccc2)C1 (configuration not stated),3.16%,–,–

# Structures listed so far that have a nitro group on carbon:
Structure (SMILES),cell number change,AC50 [1],AC50 [2]
O=c1oc2ccccc2c(Nc2ccc3ncccc3c2)c1[N+](=O)[O-],9.08%,–,"6.51 µM [rising, partial curve, poor fit]"
CC(=O)Nc1ccc(Nc2nc(C)c([N+](=O)[O-])c(N(C)c3ccccc3)n2)cc1,9.39%,–,"5.17 µM [rising, full curve, poor fit]"
Cc1cc([N+](=O)[O-])cc(/C=N\NC(=O)C2COc3ccccc3O2)c1O (configuration not stated),13%,–,–

# More compounds.

Structure (SMILES),cell number change,AC50 [1],AC50 [2]
Cc1cc(N2CCCCC2)n2ncc(-c3ccc(Cl)cc3)c2n1,–,"2.06 µM [rising, partial curve]",–
CC(Sc1nnc(CC(C)c2ccccc2)n1N)C(N)=O (configuration not stated),31.6%,"8.2 µM [rising, partial curve, poor fit]",–
Cc1ccc(-c2ocnc2C(=O)Nc2ccccc2C(=O)N2CCCC2)cc1,11.5%,–,–
CN(C)S(=O)(=O)c1ccc(S(=O)(=O)N2CCCC2)cc1,-42.6%,"25.9 µM [falling, single point]",–
Cc1cccc(C)c1NC(=O)N1CCN(c2nc3ccccc3s2)CC1,-41.6%,"29.1 µM [falling, single point]",–
Cc1cccc(N2C(=O)CC(Sc3nc(C)c4c(n3)CCCC4)C2=O)c1 (configuration not stated),–,"2.06 µM [rising, partial curve]",–
O=S(=O)(c1ccccc1)N(Cc1cccc(F)c1)c1ccccc1,-5.26%,–,"29.1 µM [falling, single point]"
OCC[C@H]1C[C@@H](O)[C@H](O)[C@@]2(Cc3ccccc3CO2)O1,18%,–,–
CC(C)c1ccc(CC(C)C2C3=C(CCCC3=O)OC3=C2C(=O)CCC3)cc1 (configuration not stated),–,"1.64 µM [rising, partial curve]","0.116 µM [rising, full curve, poor fit]"
CCOC(=O)C(NS(=O)(=O)c1ccc(Br)cc1)C(C)C (configuration not stated),-17.6%,–,"20.6 µM [falling, single point]"
Oc1ccccc1Nc1nc(NCc2ccccc2)c2ccccc2n1,-59%,"16.4 µM [falling, single point]","18.4 µM [falling, single point]"
O=C1[C@@H]2C(c3cccnc3)=NO[C@@H]2C(=O)N1c1ccc(Br)cc1,-0.261%,–,"3.66 µM [falling, full curve]"
CCNC(=O)CC1C(=O)N(c2ccc(C)cc2)C(=O)N1CCc1ccc(OC)c(OC)c1 (configuration not stated),–,–,"7.31 µM [rising, partial curve]"
CC(=O)Nc1ccc(NC(=O)CSc2nc(=O)n3cccc(C)c3n2)cc1,13.4%,–,"29.1 µM [rising, single point]"
CCOc1cc(N2CCOCC2)c(OCC)cc1NC(=O)CSc1nccc(C)n1,-4.64%,–,"29.1 µM [rising, single point]"
Cc1cc(N2C(=O)C(=O)/C(=C(/O)c3ccc(Cl)cc3)C2c2cccc(Br)c2)no1 (configuration not stated),-8.83%,–,"29.1 µM [falling, single point]"
Cc1ccc(/C=N/NC(=O)c2cc(-c3ccc(C)o3)[nH]n2)cc1,-10.5%,–,–
O=C(NCCCN1CCCC1=O)c1c(O)nc2sccn2c1=O,-75%,"29.1 µM [falling, partial curve, poor fit]","3.26 µM [rising, single point]"
CC(C)(C)c1cc(NC(=O)NN2CCOCC2)nn1-c1c(Cl)cc(Cl)cc1Cl,-31.8%,"25.9 µM [falling, single point]","10.3 µM [falling, partial curve]"
CC(=O)CCc1ccc(OCC(O)CNC2CCCc3ccccc32)cc1 (configuration not stated),5.82%,–,"3.26 µM [rising, partial curve]"
